The text below walks through data of PubChem BioAssay AID2685 (National Center for Advancing Translational Sciences (NCATS), 2010).

This assay can be described thus: qHTS Assay for Lipid Storage Modulators in Drosophila S3 Cells.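 On cell number change: cells counted by Cell Tracker Red CMTPX staining in the red channel.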 The conditions noted are these: BODIPY lipid droplet fluorescence, 18-24 h; for cell number change: measured here: cell count max response, cells fed with added oleic acid. The gist of the method: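 Drosophila S3 cells loaded with oleic acid (400 uM, as added) and compounds at several concentrations; lipid droplets imaged by 488-nm laser-scanning cytometry, 500–530 nm intensity and object ratio to cell channel. Percent activity normalized to 20 uM Triacsin C.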
On the technique in general: qHTS replaces the single test concentration by a dilution series.

The mark [1] stands for this setting: measured here: cell number channel AC50, cells fed with added oleic acid.
Where [2] appears, read: measured here: lipid fluorescence (Fed channel) AC50, cells fed with added oleic acid.

The structures appear in SMILES notation. This is one part of the list. The main result of the screen is listed elsewhere. These columns were measured beside it and carry no call. The list favours compounds with an active or inconclusive main result. The note in brackets gives the kind of curve behind each potency; many fits are weak.

By AC50 is commonly meant the concentration giving half of the maximal activity seen.

Consider `CCN(CC)c1ccc(-n2c(C)c(C(C)=O)c(C(C)=O)c2C)cc1`, for which the cell number change is -21.3%.

`CCOC(=O)Nc1nc(-c2ccccc2)c(C(=O)c2ccc(Cl)cc2)s1`: the cell number change came out at 6.12%.

As for `O=C(Nc1ccc(F)cc1)Nc1cc(S(=O)(=O)N2CCOCC2)ccc1N1CCCC1`, the cell number change was -20.3%. The AC50 under setting [1] is 5.17 nM [falling, full curve, poor fit]. Besides, under setting [2], the AC50 is 2590 nM [falling, full curve, poor fit].

As for `O=C1c2ccccc2C(O)(c2ccccc2)N1c1ccncc1` (configuration not stated), the cell number change is -3.02%. Further, the AC50 under setting [2] was 51.7 nM [rising, full curve, poor fit].

With `COc1ccc(-n2c(-c3ccc(C)cc3)n[nH]c2=S)cc1`, the cell number change turned out to be 0.999%. Under setting [2], the AC50 was 5.17 nM [falling, full curve, poor fit].

For the compound `Cc1cccc(NC(=O)CSc2nnc(-c3ccco3)c(-c3ccco3)n2)c1`, the cell number change stood at 21.6%. Under setting [2], the AC50 is 5170 nM [rising, full curve, poor fit].

With `Cc1c(NC(=O)CN2CCN(c3ccc([N+](=O)[O-])cc3)CC2)c(=O)n(-c2ccccc2)n1C`, the cell number change came out at 23%.

Consider `Cc1sc2nc(SCC(=O)NCCCO)n(-c3ccccc3)c(=O)c2c1C`, for which the cell number change was 25.9%. Besides, the AC50 under setting [2] was 6510 nM [rising, partial curve, poor fit].

Take `N#C/C(=N/O)c1nc(-c2ccc(F)cc2)cs1`: the cell number change was -30.6%. For the same compound, the AC50 under setting [1] is 23100 nM [falling, single point].

Take `CC(C)Cn1c(N)c(C(=O)CSc2ccc3c(c2)OCCO3)c(=O)n(C)c1=O`: the cell number change is -25.9%.

On to `CN(C(=O)CSc1nc2c(cnn2-c2ccccc2)c(=O)[nH]1)C1CCS(=O)(=O)C1` (configuration not stated), for which the cell number change is -18.3%. Further, the AC50 under setting [2] is 23100 nM [falling, single point].

Turning to `CC(=O)N1c2ccc(S(=O)(=O)N3CCC(C(=O)NCCc4ccc(Cl)cc4)CC3)cc2CC1C` (configuration not stated), the cell number change was -31.2%. Further, the AC50 under setting [1] is 32600 nM [falling, single point]. The AC50 under setting [2] was 5.8 nM [rising, full curve, poor fit].

On to `COC(=O)c1ccc(/C=N/NC(=O)C(=O)NCc2ccccc2)cc1`, for which the cell number change is -36.4%. In addition, under setting [1], the AC50 is 18400 nM [falling, single point]. The AC50 under setting [2] was 29100 nM [falling, partial curve].

`COc1ccc(N2CCN(c3nc4ccc(C)cn4c(=O)c3C=O)CC2)cc1`: the cell number change was -1.03%. Besides, the AC50 under setting [1] is 1780 nM [falling, partial curve].

For `CCN(CC(=O)Nc1c(F)cccc1F)C(=O)CN1C(=O)c2ccccc2C1=O`, the cell number change was determined as 4.5%.

Turning to `O=C(CSc1nnc(NC(=O)C2CC2)s1)Nc1ccccc1Cl`, the cell number change came out at 28.2%. Under setting [2], the AC50 is 29100 nM [rising, single point].

`COc1ccccc1-c1nc(=S)c(C(C)=O)c(C)[nH]1`: the cell number change worked out at 3.13%. Also, under setting [2], the AC50 was 184 nM [rising, full curve, poor fit].

Take `COc1ccc(/C=C/C(=O)c2cc(F)ccc2OC(=O)c2ccccc2C)cc1OC`: the AC50 under setting [1] is 58 nM [rising, full curve, poor fit] and the AC50 under setting [2] was 8200 nM [falling, partial curve, poor fit].

As to `COc1ccc(OCCSc2nc3ccccc3n2CCC(=O)O)cc1`, the cell number change stood at 11.7%. Moreover, the AC50 under setting [1] was 2310 nM [rising, partial curve]. The AC50 under setting [2] is 29100 nM [rising, single point].

Turning to `Cc1ccc(Nc2nnc(C3C(=O)N(C)C4(C)CC3c3cc(Br)ccc3O4)s2)cc1` (configuration not stated), the cell number change is 32.5%. Also, the AC50 under setting [1] is 1840 nM [rising, full curve]. In addition, under setting [2], the AC50 is 2310 nM [rising, partial curve].

On to `CC1CN(C(=O)c2ccccc2Nc2ccc(SC(F)F)cc2)CC(C)O1` (configuration not stated), for which the cell number change amounted to 24.9%. Besides, under setting [2], the AC50 was 8200 nM [rising, partial curve].

Take `CCOc1ccc(NS(=O)(=O)c2ccc(-c3ccc(=O)[nH]n3)o2)cc1`: under setting [1], the AC50 was 1840 nM [falling, partial curve].

With `COc1ccc(NS(=O)(=O)c2cc(N)ccc2N2CCCCC2)cc1`, the cell number change was -33%. Also, under setting [1], the AC50 is 16400 nM [falling, single point].

Consider `CCc1nnc(NC(=O)C(=O)NCCOC(=O)c2ccccc2)s1`, for which the cell number change is 35.7%. The AC50 under setting [1] was 103 nM [rising, full curve, poor fit].

Consider `CC(OC(=O)CCN=C1NS(=O)(=O)c2ccccc21)C(=O)Nc1ccc(S(N)(=O)=O)cc1` (configuration not stated), for which the cell number change was 10.4%. The AC50 under setting [1] was 651 nM [falling, full curve]. Under setting [2], the AC50 was 820 nM [falling, full curve].

For the compound `CSc1cccc2sc(NC(=O)C3=COCCO3)nc12`, the cell number change is 24.5%.

Regarding `CCCCN(C(=O)COC(=O)CSc1cc(C)c2ccccc2n1)c1c(N)n(CCC)c(=O)[nH]c1=O`, the cell number change came to 36.3%. The AC50 under setting [2] is 130 nM [rising, partial curve, poor fit].

`COCCCNC(=O)c1ccc(Cn2c(=O)c3ccccc3n(Cc3ccccc3C)c2=O)cc1`: the cell number change was -35.6%. Moreover, the AC50 under setting [1] was 4110 nM [rising, single point].

Turning to `Cc1ccccc1NC(=O)CCCCC(=O)Nc1ccccc1C`, the cell number change amounted to 9.38%. Also, under setting [2], the AC50 was 7310 nM [rising, partial curve].

As to `Cc1cccc(-n2c(Cc3cc(=O)[nH]c(=O)[nH]3)nnc2SCC(=O)N2CCCCC2)c1`, the cell number change worked out at 14%. For the same compound, the AC50 under setting [2] is 259 nM [falling, full curve].

As to `Cc1cc(NC(=O)COC(=O)C2CC(=O)N(c3ccc(Cl)cc3)C2)no1` (configuration not stated), the cell number change is 3.42%.

As to `CC(O)CNCCCCOc1ccc(OCc2ccccc2)cc1` (configuration not stated), the cell number change is -6.46%. Also, under setting [2], the AC50 was 5170 nM [falling, single point].

On to `COc1ccccc1N1CCN(C(=O)CCc2c[nH]c3ccccc23)CC1`, for which the half-maximal activity concentration (AC50) under setting [2] is 116 nM [falling, partial curve, poor fit].

For `O=C(OCn1ncc(Cl)c(Cl)c1=O)c1ccc(F)cc1`, the cell number change is -44.5%. In addition, the AC50 under setting [1] was 16400 nM [falling, partial curve]. The AC50 under setting [2] is 14600 nM [falling, partial curve].

As for `COC(=O)c1ccc2c(=O)n(Cc3ccco3)c(SCC(=O)Nc3cc(C)on3)nc2c1`, the cell number change is -8.27%. Moreover, the AC50 under setting [2] is 14100 nM [falling, single point].

For the compound `CCCn1nc(C(=O)OCC(=O)NC(C)c2ccccc2)c2ccccc2c1=O` (configuration not stated), the AC50 under setting [2] is 2910 nM [rising, single point].

Consider `C=CCN1/C(=C(\C#N)C2=NS(=O)(=O)c3ccccc32)N(C)c2ccccc21`, for which the cell number change came out at 6.67%. Also, the AC50 under setting [1] is 731 nM [rising, full curve]. In addition, the AC50 under setting [2] was 6510 nM [rising, partial curve].
